Experimental data as given in the supplement of paper PMC10849652.
The other results are listed elsewhere or left out.

The chains behind the UniProt entries cited, without tags or fusion partners. Where a name states a change or a piece, a line headed by the entry shows the natural chain unless it says otherwise.
UniProt Q96FX7: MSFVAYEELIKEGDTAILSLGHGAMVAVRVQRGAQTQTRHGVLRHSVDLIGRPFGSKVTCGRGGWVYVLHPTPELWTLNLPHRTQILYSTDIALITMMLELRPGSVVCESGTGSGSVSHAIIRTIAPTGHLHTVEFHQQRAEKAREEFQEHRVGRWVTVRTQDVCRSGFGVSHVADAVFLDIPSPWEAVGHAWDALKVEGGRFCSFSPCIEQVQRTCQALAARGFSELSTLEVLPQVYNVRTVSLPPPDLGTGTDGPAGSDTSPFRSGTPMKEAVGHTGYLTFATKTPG
UniProt Q96F44: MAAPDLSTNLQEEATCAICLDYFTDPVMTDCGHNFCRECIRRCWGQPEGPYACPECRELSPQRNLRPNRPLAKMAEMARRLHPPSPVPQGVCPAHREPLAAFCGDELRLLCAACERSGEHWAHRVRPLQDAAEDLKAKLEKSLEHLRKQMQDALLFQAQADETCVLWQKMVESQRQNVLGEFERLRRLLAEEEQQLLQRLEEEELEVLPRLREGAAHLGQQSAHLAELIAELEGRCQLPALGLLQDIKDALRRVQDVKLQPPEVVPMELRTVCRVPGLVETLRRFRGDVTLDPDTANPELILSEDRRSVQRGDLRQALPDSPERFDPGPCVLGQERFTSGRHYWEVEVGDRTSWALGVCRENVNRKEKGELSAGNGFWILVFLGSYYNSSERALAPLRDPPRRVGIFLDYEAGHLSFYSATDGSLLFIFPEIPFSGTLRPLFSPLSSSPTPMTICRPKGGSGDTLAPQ
UniProt Q5R3I4: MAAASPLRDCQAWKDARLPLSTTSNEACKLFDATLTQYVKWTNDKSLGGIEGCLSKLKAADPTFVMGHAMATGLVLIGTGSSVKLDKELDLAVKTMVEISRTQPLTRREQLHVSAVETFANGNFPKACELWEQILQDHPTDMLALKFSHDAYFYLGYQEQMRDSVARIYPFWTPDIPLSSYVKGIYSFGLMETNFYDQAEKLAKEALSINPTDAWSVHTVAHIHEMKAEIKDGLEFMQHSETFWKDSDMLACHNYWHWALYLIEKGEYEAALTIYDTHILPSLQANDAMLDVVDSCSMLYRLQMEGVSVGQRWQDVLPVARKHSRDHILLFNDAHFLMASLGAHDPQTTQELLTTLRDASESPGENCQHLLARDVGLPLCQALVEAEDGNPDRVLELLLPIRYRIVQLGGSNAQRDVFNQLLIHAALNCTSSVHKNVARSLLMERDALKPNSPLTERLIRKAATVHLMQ
UniProt Q9BSV6: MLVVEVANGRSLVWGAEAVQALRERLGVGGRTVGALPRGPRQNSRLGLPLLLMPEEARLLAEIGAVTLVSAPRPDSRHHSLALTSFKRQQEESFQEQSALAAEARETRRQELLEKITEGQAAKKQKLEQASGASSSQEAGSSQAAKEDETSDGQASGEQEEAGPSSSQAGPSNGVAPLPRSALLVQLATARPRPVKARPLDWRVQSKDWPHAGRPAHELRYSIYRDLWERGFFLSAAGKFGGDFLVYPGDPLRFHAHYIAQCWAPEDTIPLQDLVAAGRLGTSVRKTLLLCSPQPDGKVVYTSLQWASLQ
UniProt Q9Y5U2: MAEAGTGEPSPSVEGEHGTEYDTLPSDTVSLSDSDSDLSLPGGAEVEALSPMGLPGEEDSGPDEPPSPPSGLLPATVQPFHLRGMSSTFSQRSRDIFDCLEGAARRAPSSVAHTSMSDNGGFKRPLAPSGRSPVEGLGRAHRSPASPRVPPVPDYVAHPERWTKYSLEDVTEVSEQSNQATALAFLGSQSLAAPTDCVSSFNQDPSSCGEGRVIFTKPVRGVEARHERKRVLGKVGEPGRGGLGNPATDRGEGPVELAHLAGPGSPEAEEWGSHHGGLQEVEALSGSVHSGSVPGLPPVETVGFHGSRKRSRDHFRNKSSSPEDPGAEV
UniProt Q9H892: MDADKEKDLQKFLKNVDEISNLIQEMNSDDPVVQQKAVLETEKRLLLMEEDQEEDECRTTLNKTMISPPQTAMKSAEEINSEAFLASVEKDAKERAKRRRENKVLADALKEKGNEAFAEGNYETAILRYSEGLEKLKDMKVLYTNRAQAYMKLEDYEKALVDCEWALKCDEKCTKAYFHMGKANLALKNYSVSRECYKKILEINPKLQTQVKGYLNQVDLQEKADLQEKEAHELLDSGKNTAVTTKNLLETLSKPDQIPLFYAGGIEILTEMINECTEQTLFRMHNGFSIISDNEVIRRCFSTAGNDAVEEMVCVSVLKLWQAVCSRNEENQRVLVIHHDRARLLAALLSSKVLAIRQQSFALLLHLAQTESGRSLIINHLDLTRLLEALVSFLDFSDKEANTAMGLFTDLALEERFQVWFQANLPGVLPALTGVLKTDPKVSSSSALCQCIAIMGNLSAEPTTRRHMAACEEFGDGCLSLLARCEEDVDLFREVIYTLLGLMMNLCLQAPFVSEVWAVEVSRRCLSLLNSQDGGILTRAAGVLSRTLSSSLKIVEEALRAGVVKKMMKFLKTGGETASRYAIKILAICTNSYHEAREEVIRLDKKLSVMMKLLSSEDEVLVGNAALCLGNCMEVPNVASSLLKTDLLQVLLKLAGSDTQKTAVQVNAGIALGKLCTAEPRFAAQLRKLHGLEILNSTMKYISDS
UniProt Q9BQ61: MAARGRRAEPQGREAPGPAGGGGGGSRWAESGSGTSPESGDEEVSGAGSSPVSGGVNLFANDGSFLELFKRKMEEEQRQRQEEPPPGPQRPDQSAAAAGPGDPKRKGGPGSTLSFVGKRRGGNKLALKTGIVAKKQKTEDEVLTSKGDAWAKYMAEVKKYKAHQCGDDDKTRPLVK
UniProt Q8NG68: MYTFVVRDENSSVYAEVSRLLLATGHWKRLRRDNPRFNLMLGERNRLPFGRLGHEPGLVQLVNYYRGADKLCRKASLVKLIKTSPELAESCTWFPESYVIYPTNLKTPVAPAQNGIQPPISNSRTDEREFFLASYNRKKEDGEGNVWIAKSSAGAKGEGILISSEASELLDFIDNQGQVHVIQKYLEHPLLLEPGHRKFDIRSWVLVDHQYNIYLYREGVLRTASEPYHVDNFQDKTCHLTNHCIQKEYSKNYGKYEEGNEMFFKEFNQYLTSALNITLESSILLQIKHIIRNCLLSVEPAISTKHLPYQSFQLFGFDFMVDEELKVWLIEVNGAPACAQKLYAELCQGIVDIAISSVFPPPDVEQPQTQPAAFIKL
UniProt Q96AE7: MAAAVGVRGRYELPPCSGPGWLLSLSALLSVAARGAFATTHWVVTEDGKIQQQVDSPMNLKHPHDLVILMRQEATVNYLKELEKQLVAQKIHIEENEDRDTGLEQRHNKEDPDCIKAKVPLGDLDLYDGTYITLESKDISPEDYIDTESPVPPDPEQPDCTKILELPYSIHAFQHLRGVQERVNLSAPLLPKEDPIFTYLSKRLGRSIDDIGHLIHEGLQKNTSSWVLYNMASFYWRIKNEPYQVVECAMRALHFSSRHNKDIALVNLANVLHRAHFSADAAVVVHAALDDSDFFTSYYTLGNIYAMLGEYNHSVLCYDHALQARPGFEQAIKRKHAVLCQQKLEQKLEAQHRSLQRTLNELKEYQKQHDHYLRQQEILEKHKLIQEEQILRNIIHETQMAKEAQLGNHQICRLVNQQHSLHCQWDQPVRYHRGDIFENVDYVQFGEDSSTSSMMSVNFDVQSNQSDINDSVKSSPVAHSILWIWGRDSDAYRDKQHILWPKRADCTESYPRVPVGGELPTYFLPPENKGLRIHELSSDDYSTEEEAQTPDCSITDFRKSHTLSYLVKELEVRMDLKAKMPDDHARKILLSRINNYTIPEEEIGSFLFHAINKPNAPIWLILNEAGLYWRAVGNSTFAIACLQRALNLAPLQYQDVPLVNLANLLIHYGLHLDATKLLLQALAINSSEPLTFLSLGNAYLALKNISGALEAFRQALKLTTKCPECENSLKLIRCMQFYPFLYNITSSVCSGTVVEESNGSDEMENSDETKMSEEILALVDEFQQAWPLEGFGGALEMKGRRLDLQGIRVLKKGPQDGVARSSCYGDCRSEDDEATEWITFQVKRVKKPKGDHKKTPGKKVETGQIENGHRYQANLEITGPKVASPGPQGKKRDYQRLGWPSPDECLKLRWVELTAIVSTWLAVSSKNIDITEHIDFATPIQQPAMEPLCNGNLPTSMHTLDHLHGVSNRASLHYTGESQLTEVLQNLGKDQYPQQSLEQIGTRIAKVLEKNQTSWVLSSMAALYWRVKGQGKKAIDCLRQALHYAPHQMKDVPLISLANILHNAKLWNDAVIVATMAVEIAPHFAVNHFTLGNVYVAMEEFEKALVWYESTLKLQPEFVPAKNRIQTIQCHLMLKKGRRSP
UniProt Q7L0Y3: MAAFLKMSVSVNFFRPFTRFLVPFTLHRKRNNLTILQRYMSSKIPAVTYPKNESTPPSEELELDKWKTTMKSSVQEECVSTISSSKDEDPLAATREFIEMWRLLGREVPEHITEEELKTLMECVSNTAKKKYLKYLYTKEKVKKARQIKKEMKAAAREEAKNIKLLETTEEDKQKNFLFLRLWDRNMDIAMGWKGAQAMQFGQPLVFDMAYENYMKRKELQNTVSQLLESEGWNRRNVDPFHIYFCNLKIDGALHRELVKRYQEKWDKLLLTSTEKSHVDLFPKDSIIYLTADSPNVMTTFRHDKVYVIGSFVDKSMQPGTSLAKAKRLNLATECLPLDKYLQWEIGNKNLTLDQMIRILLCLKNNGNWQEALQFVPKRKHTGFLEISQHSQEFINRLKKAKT
UniProt O75865, whole entry, looked up: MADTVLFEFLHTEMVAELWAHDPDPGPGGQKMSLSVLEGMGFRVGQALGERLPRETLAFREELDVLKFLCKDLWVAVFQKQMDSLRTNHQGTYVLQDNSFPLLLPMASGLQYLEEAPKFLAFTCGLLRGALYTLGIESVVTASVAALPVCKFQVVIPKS
UniProt Q8N0Z6: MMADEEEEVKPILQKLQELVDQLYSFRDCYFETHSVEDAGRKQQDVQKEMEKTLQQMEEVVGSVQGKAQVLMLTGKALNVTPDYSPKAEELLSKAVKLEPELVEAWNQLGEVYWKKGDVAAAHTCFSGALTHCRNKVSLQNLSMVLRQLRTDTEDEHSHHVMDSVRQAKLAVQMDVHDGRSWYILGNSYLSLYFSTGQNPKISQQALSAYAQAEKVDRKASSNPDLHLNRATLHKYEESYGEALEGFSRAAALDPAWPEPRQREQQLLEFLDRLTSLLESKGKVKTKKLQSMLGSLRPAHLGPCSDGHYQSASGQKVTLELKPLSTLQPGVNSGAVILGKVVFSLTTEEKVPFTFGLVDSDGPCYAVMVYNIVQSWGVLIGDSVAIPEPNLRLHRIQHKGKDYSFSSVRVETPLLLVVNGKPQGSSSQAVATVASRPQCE
UniProt Q8IZ69: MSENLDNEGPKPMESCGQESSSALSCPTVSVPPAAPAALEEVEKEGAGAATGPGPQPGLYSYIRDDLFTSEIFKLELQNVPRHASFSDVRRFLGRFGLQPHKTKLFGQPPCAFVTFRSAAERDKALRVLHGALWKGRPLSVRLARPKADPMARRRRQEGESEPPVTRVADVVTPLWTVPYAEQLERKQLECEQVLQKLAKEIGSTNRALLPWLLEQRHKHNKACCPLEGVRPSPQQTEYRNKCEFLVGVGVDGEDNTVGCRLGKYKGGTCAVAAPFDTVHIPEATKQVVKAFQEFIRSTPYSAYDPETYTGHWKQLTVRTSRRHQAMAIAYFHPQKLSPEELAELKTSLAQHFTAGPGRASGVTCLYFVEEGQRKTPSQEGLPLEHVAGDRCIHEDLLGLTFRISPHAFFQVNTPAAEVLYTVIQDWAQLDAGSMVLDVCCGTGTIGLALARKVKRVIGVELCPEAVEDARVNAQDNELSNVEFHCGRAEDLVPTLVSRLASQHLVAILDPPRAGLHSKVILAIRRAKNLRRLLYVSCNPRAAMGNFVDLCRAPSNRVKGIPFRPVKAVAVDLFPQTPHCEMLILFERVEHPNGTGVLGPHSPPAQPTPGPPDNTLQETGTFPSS
UniProt Q9C035: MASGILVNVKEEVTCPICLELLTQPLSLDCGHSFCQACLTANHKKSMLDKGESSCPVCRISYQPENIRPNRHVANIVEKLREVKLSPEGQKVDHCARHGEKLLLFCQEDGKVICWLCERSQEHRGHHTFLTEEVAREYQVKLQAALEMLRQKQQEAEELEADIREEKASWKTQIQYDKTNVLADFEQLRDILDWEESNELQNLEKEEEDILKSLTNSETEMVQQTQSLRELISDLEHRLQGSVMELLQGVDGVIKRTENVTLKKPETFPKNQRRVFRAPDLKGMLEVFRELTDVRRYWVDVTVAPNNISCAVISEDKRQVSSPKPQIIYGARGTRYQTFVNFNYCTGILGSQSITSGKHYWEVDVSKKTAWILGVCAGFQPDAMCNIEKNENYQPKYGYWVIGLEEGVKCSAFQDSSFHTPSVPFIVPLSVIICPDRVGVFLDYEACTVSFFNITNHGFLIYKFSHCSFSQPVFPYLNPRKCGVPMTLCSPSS

Experiments:
Test in all cases: log2 fold change, soluble protein after heating vs DMSO (PISA); higher = thermal stabilisation; K562 lysate, 10 uM; active = over 0.2 and 3.5 SD of the protein, either way, in both replicates (recomputed)
alvocidib = compound: CN1CC[C@H](c2c(O)cc(O)c3c(=O)cc(-c4ccccc4Cl)oc23)[C@H](O)C1 [alvocidib]
Summary of the method: (§1)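 Quantification was by TMTpro 16plex LC-MS/MS with equalised channel sums, applied to the supernatant after 21,000xg for 90 min. Samples were crude K562 extract at 1 mg/mL protein in PBS pH 7.4 with 1 mM MgCl2, treated with 10 μM compound for 30 min, heated for 3 min across 48°C-58°C, pooled and brought to 0.5% NP-40 at 4°C. Values are log-two fold changes in thermal stability relative to solvent controls, from duplicates.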

Tubastatin A = compound: CN1CCc2c(c3ccccc3n2Cc2ccc(C(=O)NO)cc2)C1 [Tubastatin A]
Summary of the method: as §1

[1] = compound: CNC(=O)C1=CC=CC=C1NC2=NC(=NC=C2Cl)NC3=C(C=C(C=C3)N4CCOCC4)OC
Summary of the method: as §1

defactinib = compound: CNC(=O)c1ccc(Nc2ncc(C(F)(F)F)c(NCc3nccnc3N(C)S(C)(=O)=O)n2)cc1 [defactinib]
Summary of the method: as §1

[2] = compound: CNc1nc(-c2ccc3c(N)n[nH]c3c2)cc(N2C[C@@H](C(=O)NC3CCCCC3)CC[C@H]2C)n1
Summary of the method: as §1

encorafenib = compound: COC(=O)N[C@@H](C)CNc1nccc(-c2cn(C(C)C)nc2-c2cc(Cl)cc(NS(C)(=O)=O)c2F)n1 [encorafenib]
Summary of the method: as §1

[3] = compound: COC(=O)[C@H](CCSC)NC(=O)C1=C(C=C(C=C1)NC[C@H](CS)N)C2=CC=CC=C2
Summary of the method: as §1

alisertib = compound: COc1cc(Nc2ncc3c(n2)-c2ccc(Cl)cc2C(c2c(F)cccc2OC)=NC3)ccc1C(=O)O [alisertib]
Summary of the method: as §1

[4] = compound: COc1cc2nc(-c3cc(F)ccc3O)nc(N[C@@H]3CNC[C@H]3C(C)(C)O)c2cc1OC
Summary of the method: as §1

gefitinib = compound: COc1cc2ncnc(Nc3ccc(F)c(Cl)c3)c2cc1OCCCN1CCOCC1 [gefitinib]
Summary of the method: as §1

lapatinib = compound: CS(=O)(=O)CCNCc1ccc(-c2ccc3ncnc(Nc4ccc(OCc5cccc(F)c5)c(Cl)c4)c3c2)o1 [lapatinib]
Summary of the method: as §1

pictilisib = compound: CS(=O)(=O)N1CCN(Cc2cc3nc(-c4cccc5[nH]ncc45)nc(N4CCOCC4)c3s2)CC1 [pictilisib]
Summary of the method: as §1

crizotinib = compound: C[C@@H](Oc1cc(-c2cnn(C3CCNCC3)c2)cnc1N)c1c(Cl)ccc(F)c1Cl [crizotinib]
Summary of the method: as §1

[5] = compound: C[C@H](C1=CC=C(C=C1)C(=O)NC2=C3C=CNC3=NC=C2)N
Summary of the method: as §1

duvelisib = compound: C[C@H](Nc1ncnc2nc[nH]c12)c1cc2cccc(Cl)c2c(=O)n1-c1ccccc1 [duvelisib]
Summary of the method: as §1

gandotinib = compound: Cc1cc(Nc2cc(CN3CCOCC3)c3nc(C)c(Cc4ccc(Cl)cc4F)n3n2)n[nH]1 [gandotinib]
Summary of the method: as §1

tozasertib = compound: Cc1cc(Nc2cc(N3CCN(C)CC3)nc(Sc3ccc(NC(=O)C4CC4)cc3)n2)n[nH]1 [tozasertib]
Summary of the method: as §1

doramapimod = compound: Cc1ccc(-n2nc(C(C)(C)C)cc2NC(=O)Nc2ccc(OCCN3CCOCC3)c3ccccc23)cc1 [doramapimod]
Summary of the method: as §1

bafetinib = compound: Cc1ccc(NC(=O)c2ccc(CN3CC[C@H](N(C)C)C3)c(C(F)(F)F)c2)cc1Nc1nccc(-c2cncnc2)n1 [bafetinib]
Summary of the method: as §1

[6] = compound: Cc1cccc(CC(=O)N2CCc3c2ccc(-c2cn(C)c4ncnc(N)c24)c3F)n1
Summary of the method: as §1

Target | log2 fold change (alvocidib) | log2 fold change (Tubastatin A) | log2 fold change [1] | log2 fold change (defactinib) | log2 fold change [2] | log2 fold change (encorafenib) | log2 fold change [3] | log2 fold change (alisertib) | log2 fold change [4] | log2 fold change (gefitinib) | log2 fold change (lapatinib) | log2 fold change (pictilisib) | log2 fold change (crizotinib) | log2 fold change [5] | log2 fold change (duvelisib) | log2 fold change (gandotinib) | log2 fold change (tozasertib) | log2 fold change (doramapimod) | log2 fold change (bafetinib) | log2 fold change [6]
TRMT61A (UniProt Q96FX7) | inactive: 0.03 | inactive: 0.075 | inactive: 0.022 | inactive: 0.032 | inactive: -0.036 | inactive: -0.022 | inactive: 0.057 | inactive: -0.02 | inactive: -0.06 | inactive: -0.085 | inactive: 0.071 | inactive: 0.002 | inactive: 0.048 | inactive: 0.038 | inactive: -0.053 | inactive: 0.003 | inactive: -0.049 | inactive: -0.052 | inactive: 0.133 | inactive: -0.106
TRIM11 (UniProt Q96F44) | inactive: -0.015 | inactive: -0.021 | inactive: 0.037 | inactive: 0.016 | inactive: -0.007 | inactive: 0.029 | inactive: 0.053 | inactive: -0.026 | inactive: -0.055 | inactive: 0.004 | inactive: 0.013 | inactive: -0.006 | inactive: -0.029 | inactive: -0.006 | inactive: -0.016 | inactive: -0.03 | inactive: -0.006 | inactive: 0.015 | inactive: 0.029 | inactive: -0.003
TTC38 (UniProt Q5R3I4) | inactive: 0.121 | inactive: -0.013 | inactive: 0.004 | inactive: 0.001 | inactive: 0.034 | inactive: -0.045 | inactive: 0.013 | inactive: -0.046 | inactive: -0.018 | inactive: -0.069 | inactive: -0.034 | inactive: -0.029 | inactive: 0.031 | inactive: 0.213 | inactive: -0.022 | inactive: -0.116 | inactive: -0.011 | active: 0.301 | inactive: 0.065 | inactive: -0.186
TSEN34 (UniProt Q9BSV6) | inactive: -0.026 | inactive: -0.005 | inactive: -0.014 | inactive: -0.061 | inactive: 0.045 | inactive: 0.033 | inactive: 0.059 | inactive: -0.041 | inactive: 0.009 | inactive: -0.007 | inactive: -0.029 | inactive: -0.008 | inactive: -0.022 | inactive: 0.003 | inactive: -0.029 | inactive: -0.058 | inactive: 0.038 | inactive: 0.009 | inactive: -0.049 | inactive: 0.026
TSSC4 (UniProt Q9Y5U2) | inactive: -0.015 | inactive: 0.066 | inactive: 0.028 | inactive: 0.031 | inactive: 0.062 | inactive: 0.061 | inactive: -0.098 | inactive: 0.077 | inactive: 0.009 | inactive: 0.089 | inactive: 0.024 | inactive: 0.029 | inactive: -0.067 | inactive: -0.059 | inactive: 0.025 | inactive: 0.084 | inactive: -0.106 | inactive: -0.015 | inactive: -0.049 | inactive: 0.05
TTC12 isoform 2 (UniProt Q9H892) | inactive: -0.024 | inactive: -0.279 | inactive: -0.06 | inactive: -0.05 | inactive: -0.041 | inactive: -0.052 | inactive: -0.03 | inactive: -0.145 | inactive: -0.043 | inactive: 0.137 | inactive: -0.053 | inactive: -0.153 | inactive: -0.068 | inactive: -0.416 | inactive: 0.143 | inactive: 0.031 | inactive: 0.092 | inactive: 0.022 | inactive: -0.14 | active: 0.445
TRIR (UniProt Q9BQ61) | inactive: -0.021 | inactive: 0.054 | inactive: -0.004 | inactive: -0.027 | inactive: 0.019 | inactive: -0.042 | inactive: -0.021 | inactive: -0.017 | inactive: -0.004 | inactive: -0.038 | inactive: 0.028 | inactive: 0.017 | inactive: 0.058 | inactive: -0.057 | inactive: 0.004 | inactive: 0.055 | inactive: 0.031 | inactive: 0 | inactive: 0.012 | inactive: 0.028
TRAPPC2 isoform 3 (UniProt P0DI81) | inactive: 0.011 | inactive: -0.024 | inactive: 0.043 | inactive: -0.042 | inactive: -0.137 | inactive: 0.004 | inactive: -0.065 | inactive: -0.071 | inactive: -0.022 | inactive: 0.034 | inactive: 0.031 | inactive: -0.142 | inactive: 0.023 | inactive: -0.008 | inactive: 0.054 | inactive: -0.113 | inactive: 0.018 | inactive: 0.066 | inactive: 0.075 | inactive: 0.032
TTL (UniProt Q8NG68) | inactive: 0.112 | inactive: -0.143 | inactive: 0.015 | inactive: -0.065 | inactive: 0.001 | inactive: 0.079 | inactive: 0.144 | inactive: -0.027 | inactive: 0.019 | inactive: 0.112 | inactive: -0.015 | inactive: -0.057 | inactive: -0.067 | inactive: 0.096 | active: 0.356 | inactive: -0.033 | inactive: -0.112 | inactive: -0.011 | inactive: -0.091 | inactive: -0.048
TTC17 (UniProt Q96AE7) | inactive: -0.025 | inactive: 0.032 | inactive: 0.074 | inactive: -0.039 | inactive: 0.046 | inactive: 0.118 | inactive: -0.012 | inactive: -0.07 | inactive: 0.041 | inactive: 0.014 | inactive: -0.011 | inactive: -0.111 | inactive: 0.009 | inactive: -0.038 | inactive: -0.025 | inactive: 0.125 | inactive: 0.059 | inactive: 0.029 | inactive: -0.045 | inactive: 0.058
TRMT10C (UniProt Q7L0Y3) | inactive: 0.041 | inactive: -0.086 | inactive: 0.043 | inactive: -0.048 | inactive: -0.007 | inactive: -0.014 | inactive: 0.033 | inactive: 0 | inactive: -0.009 | inactive: -0.013 | inactive: -0.012 | inactive: 0.026 | inactive: -0.007 | inactive: 0.015 | inactive: 0.037 | inactive: -0.064 | inactive: 0.039 | inactive: 0.034 | inactive: 0.057 | inactive: -0.016
TRAPPC6A isoform 2 (UniProt O75865) | inactive: 0.059 | inactive: -0.006 | inactive: 0.011 | inactive: -0.026 | inactive: -0.017 | inactive: -0.142 | inactive: -0.027 | inactive: -0.052 | inactive: 0 | inactive: -0.043 | inactive: 0.02 | inactive: 0.015 | inactive: 0.001 | inactive: -0.146 | inactive: -0.006 | inactive: 0.14 | inactive: -0.039 | inactive: -0.01 | inactive: 0.017 | inactive: 0.05
TTC5 (UniProt Q8N0Z6) | inactive: -0.006 | inactive: -0.092 | inactive: -0.017 | inactive: -0.017 | inactive: -0.02 | inactive: -0.021 | inactive: 0.057 | inactive: -0.036 | inactive: -0.01 | inactive: 0.091 | inactive: 0.039 | inactive: -0.021 | inactive: -0.053 | inactive: -0.064 | inactive: 0.032 | inactive: -0.048 | inactive: 0.076 | inactive: 0.007 | inactive: -0.052 | inactive: 0.04
TRMT2A (UniProt Q8IZ69) | inactive: -0.014 | inactive: -0.144 | inactive: 0.019 | inactive: 0.041 | inactive: -0.018 | inactive: 0.019 | inactive: 0.098 | inactive: 0.043 | inactive: 0.007 | inactive: 0.007 | inactive: -0.01 | inactive: -0.057 | inactive: -0.017 | inactive: -0.002 | inactive: -0.036 | inactive: -0.03 | inactive: 0.001 | inactive: -0.002 | inactive: -0.016 | inactive: 0.009
TRIM5 (UniProt Q9C035) | inactive: 0.021 | inactive: -0.134 | inactive: 0.086 | inactive: -0.04 | inactive: -0.031 | inactive: 0.032 | inactive: 0.032 | inactive: 0.121 | inactive: -0.105 | inactive: 0.014 | inactive: -0.018 | inactive: 0.005 | inactive: -0.037 | inactive: -0.028 | inactive: 0.004 | inactive: -0.055 | inactive: 0.155 | inactive: 0.008 | inactive: -0.013 | inactive: 0.104

Exported tab-delimited: part of the list above
Target	log2 fold change (alvocidib)	log2 fold change (Tubastatin A)	log2 fold change [1]	log2 fold change (defactinib)	log2 fold change [2]	log2 fold change (encorafenib)	log2 fold change [3]	log2 fold change (alisertib)	log2 fold change [4]	log2 fold change (gefitinib)	log2 fold change (lapatinib)	log2 fold change (pictilisib)	log2 fold change (crizotinib)	log2 fold change [5]	log2 fold change (duvelisib)	log2 fold change (gandotinib)	log2 fold change (tozasertib)	log2 fold change (doramapimod)	log2 fold change (bafetinib)	log2 fold change [6]
TRMT61A (UniProt Q96FX7)	inactive: 0.03	inactive: 0.075	inactive: 0.022	inactive: 0.032	inactive: -0.036	inactive: -0.022	inactive: 0.057	inactive: -0.02	inactive: -0.06	inactive: -0.085	inactive: 0.071	inactive: 0.002	inactive: 0.048	inactive: 0.038	inactive: -0.053	inactive: 0.003	inactive: -0.049	inactive: -0.052	inactive: 0.133	inactive: -0.106
TRIM11 (UniProt Q96F44)	inactive: -0.015	inactive: -0.021	inactive: 0.037	inactive: 0.016	inactive: -0.007	inactive: 0.029	inactive: 0.053	inactive: -0.026	inactive: -0.055	inactive: 0.004	inactive: 0.013	inactive: -0.006	inactive: -0.029	inactive: -0.006	inactive: -0.016	inactive: -0.03	inactive: -0.006	inactive: 0.015	inactive: 0.029	inactive: -0.003
TTC38 (UniProt Q5R3I4)	inactive: 0.121	inactive: -0.013	inactive: 0.004	inactive: 0.001	inactive: 0.034	inactive: -0.045	inactive: 0.013	inactive: -0.046	inactive: -0.018	inactive: -0.069	inactive: -0.034	inactive: -0.029	inactive: 0.031	inactive: 0.213	inactive: -0.022	inactive: -0.116	inactive: -0.011	active: 0.301	inactive: 0.065	inactive: -0.186
TSEN34 (UniProt Q9BSV6)	inactive: -0.026	inactive: -0.005	inactive: -0.014	inactive: -0.061	inactive: 0.045	inactive: 0.033	inactive: 0.059	inactive: -0.041	inactive: 0.009	inactive: -0.007	inactive: -0.029	inactive: -0.008	inactive: -0.022	inactive: 0.003	inactive: -0.029	inactive: -0.058	inactive: 0.038	inactive: 0.009	inactive: -0.049	inactive: 0.026
